According to PMC11948044:
No constants are given. Whether binding was seen depends on the method and setting. Binding seen in cells or lysates may run through a third protein. A yes stands for co-enrichment or nearness to the bait. Other partners may have been found.

Amino acid sequences for entries named in this document (tags omitted).
UniProt P31749: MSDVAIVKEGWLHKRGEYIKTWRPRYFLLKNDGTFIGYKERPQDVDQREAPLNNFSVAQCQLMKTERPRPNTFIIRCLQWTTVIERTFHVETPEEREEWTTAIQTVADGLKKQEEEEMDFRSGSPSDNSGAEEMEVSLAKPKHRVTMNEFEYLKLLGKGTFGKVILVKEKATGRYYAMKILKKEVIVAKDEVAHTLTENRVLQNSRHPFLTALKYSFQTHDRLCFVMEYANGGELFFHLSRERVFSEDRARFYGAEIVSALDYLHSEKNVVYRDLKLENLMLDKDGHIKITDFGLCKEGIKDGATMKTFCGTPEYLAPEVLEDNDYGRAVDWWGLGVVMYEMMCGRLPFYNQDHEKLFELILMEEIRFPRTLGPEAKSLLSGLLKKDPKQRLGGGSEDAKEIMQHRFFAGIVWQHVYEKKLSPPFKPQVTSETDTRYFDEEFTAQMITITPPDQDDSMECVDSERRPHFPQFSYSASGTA

Molecular target: AKT serine/threonine kinase 1 (human (endogenous in Huh7)) (UniProt P31749)
Assay: affinity purification with mass spectrometry; co-IP of AKT1 from cell lysate, immunoprecipitate analysed by Nano-HPLC mass spectrometry (Proteome Discoverer 2.5); 882 proteins captured

B1: aldolase B (protein, UniProt P05062 1-364)
chain: MAHRFPALTQEQKKELSEIAQSIVANGKGILAADESVGTMGNRLQRIKVENTEENRRQFREILFSVDSSINQSIGGVILFHETLYQKDSQGKLFRNILKEKGIVVGIKLDQGGAPLAGTNKETTIQGLDGLSERCAQYKKDGVDFGKWRAVLRIADQCPSSLAIQENANALARYASICQQNGLVPIVEPEVIPDGDHDLEHCQYVTEKVLAAVYKALNDHHVYLEGTLLKPNMVTAGHACTKKYTPEQVAMATVTALHRTVPAAVPGICFLSGGMSEEDATLNLNAINLCPLPKPWKLSFSYGRALQASALAAWGGKAANKEATQEAFMKRAMANCQAAKGQYVHTGSSGAASTQSLFTACYTY
For B1, the binding was “binds”.
